Data from patent US20260258116A1.
Results are given in words; binding and its absence hold for the method and conditions named. Binding calls can cover weak binding; strength is not graded here.

Tests used:
[1] = target: Hemagglutinin (Influenza B) (Influenza B); assay: figure legend; ELISA
[2] = target: Pilin (Streptococcus pneumoniae) (Streptococcus pneumoniae); assay: figure legend; ELISA
[3] = target: Non-structural protein 1 (NSP-1, Dengue virus) (Dengue virus); assay: figure legend; ELISA
[4] = target: Hemagglutinin (Influenza B) (Influenza B); assay: ELISA
[5] = target: Pilin (Streptococcus pneumoniae) (Streptococcus pneumoniae); assay: ELISA
[6] = target: Non-structural protein 1 (NSP-1, Dengue virus) (Dengue virus); assay: ELISA

Measured: binding

B1: G2-VHH (also referred to as VHH-G2) (VHH)
VHH: QVQLVESGGGLVQPGGSLRLSCAASGFTMGDYAIGWFRQVPGKEREGLSYSTKNGIKAYADSVRDRFTISRENAKNTVYLQMNSLKPEDTAVYYCAASTRFGGLLVSRYDYWGQGTQVTVSS
binds: all assays above
